# Measurements as given in publication PMC8895250.
# The chains behind the UniProt entries cited, without tags or fusion partners.
# UniProt P31354: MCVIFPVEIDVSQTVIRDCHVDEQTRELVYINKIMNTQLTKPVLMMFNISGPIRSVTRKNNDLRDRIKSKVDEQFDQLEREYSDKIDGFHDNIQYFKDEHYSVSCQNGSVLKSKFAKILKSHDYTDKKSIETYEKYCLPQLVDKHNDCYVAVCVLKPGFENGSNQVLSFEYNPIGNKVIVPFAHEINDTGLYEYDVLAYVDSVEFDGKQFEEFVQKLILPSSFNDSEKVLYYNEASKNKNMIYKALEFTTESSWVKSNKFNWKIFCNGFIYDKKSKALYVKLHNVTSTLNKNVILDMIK
# UniProt Q59HV7: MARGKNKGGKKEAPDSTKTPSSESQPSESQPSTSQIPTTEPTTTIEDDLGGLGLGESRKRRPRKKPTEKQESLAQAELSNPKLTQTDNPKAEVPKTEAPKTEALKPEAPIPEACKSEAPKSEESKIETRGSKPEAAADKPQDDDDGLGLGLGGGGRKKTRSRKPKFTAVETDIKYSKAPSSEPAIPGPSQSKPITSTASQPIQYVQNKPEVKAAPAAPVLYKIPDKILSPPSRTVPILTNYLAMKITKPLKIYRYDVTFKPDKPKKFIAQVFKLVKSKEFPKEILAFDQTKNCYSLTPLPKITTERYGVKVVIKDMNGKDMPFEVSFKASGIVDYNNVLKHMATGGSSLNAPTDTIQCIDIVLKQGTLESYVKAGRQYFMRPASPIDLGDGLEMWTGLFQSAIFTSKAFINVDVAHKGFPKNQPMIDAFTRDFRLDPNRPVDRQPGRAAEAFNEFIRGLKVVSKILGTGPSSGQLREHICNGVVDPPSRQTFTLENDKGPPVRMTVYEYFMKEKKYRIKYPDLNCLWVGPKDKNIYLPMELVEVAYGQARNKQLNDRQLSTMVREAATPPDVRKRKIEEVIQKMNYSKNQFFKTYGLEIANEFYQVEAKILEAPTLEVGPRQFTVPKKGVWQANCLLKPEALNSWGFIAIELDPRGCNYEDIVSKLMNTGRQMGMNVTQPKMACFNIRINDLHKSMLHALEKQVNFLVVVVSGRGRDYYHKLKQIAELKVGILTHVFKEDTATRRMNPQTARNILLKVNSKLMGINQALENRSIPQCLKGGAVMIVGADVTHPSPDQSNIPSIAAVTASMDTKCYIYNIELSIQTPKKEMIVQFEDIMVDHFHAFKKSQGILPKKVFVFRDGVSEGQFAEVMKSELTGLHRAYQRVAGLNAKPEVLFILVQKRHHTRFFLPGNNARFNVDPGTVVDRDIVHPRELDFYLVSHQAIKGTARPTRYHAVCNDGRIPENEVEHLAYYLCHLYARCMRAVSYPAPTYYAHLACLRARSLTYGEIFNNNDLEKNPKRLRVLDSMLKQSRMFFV
# Results are given in words; binding and its absence hold for the method and conditions named. Binding seen in cells or lysates may run through a third protein.
# Biological target: p35 of Bombyx mori nucleopolyhedrovirus (BmNPV), Flag-tagged (from pIZ-p35Flag) (Bombyx mori nucleopolyhedrovirus (BmNPV)) (UniProt P31354)
# Test: co-IP; BmN cells cotransfected with pIZ-p35Flag and pIZ-BmAgo2-HA; lysate immunoprecipitated overnight at 4°C with anti-Flag magnetic beads; beads washed five times with PBS; Western blot
substance,measurement,value
"Bombyx mori Argonaute-2, HA-tagged (from pIZ-BmAgo2-HA) (from UniProt Q59HV7 1-1038)",binding,no binding
